Test results as given in patent US9359323B2, “Compound” (priority 2010, dated 2016).

Test system: human pancreatic carcinoma cell line
Assay: Fluorescence microscopy of compound uptake in pancreatic cancer cell line
Format: cell-based
Details: 20 μM, 60 minutes, Dapi filter, 40x magnification
Description: The human pancreatic carcinoma cell line was maintained in high glucose DMEM supplemented with 10% heat-inactivated foetal bovine serum (FBS).
(§1) Cells were plated into a 24-well tissue culture plate at a density of 20.5×10^4 cells per well. The cells were cultured at 37° C. in an atmosphere of 5% CO2 for 20-24 hours before the addition of 20 μM AO-CHA. The cells were incubated at 37° C. in an atmosphere of 5% CO2 and 19% oxygen for 60 minutes. Supernatant removed and wells washed twice with PBS. Cells imaged using a fluorescence microscope using a Dapi filter and forty times magnification. Images taken for both brightfield and fluorescence.
as §1, with “density of 18×10^4 cells per” for “density of 20.5×10^4 cells per”, “well. The Cells were cultured” for “well. The cells were cultured”, “20 μM AO3003. The cells” for “20 μM AO-CHA. The cells”

Row | SMILES | uptake into the cancer cell line (fluorescence)
1 | O=c1c(O)c(-c2cc(O)c(O)c(O)c2)oc2cc(C3CCCCC3)ccc12 [AO3003] | effective uptake
2 | COc1cc(-c2oc3cc(CC4CCC(N)CC4)ccc3c(=O)c2O)cc(OC)c1O (centres unmarked) [AO-CHA] | effective uptake
